From US20070172912A1, “Method for fluorescently staining tissue” (PENTAX Corporation, priority 2006, published 2007)
For at least one compound, name, drawing or mass did not settle the structure.

Columns and labels:
[1] = pH-dependent fluorescence emission of fluorescein; assay type: physicochemical; settings: 1 mg/mL aqueous solution, 0.1 M sodium phosphate buffer, excitation 490 nm, fluorescence 530 nm
[2] = system: large intestine of a living body; experiment: Staining by intestinal infusion of fluorescein sodium; assay type: in vivo, mouse; settings: 500 μL
[3] = pH 4.0, 1 mg/mL, injected into large intestine, 10 minutes

## O=C1OC2(c3ccc(O)cc3Oc3cc(O)ccc32)c2ccccc21 [F—Na, fluorescein sodium]
[1]
  fluorescence intensity of fluorescein versus pH: gets stronger at higher pH values
[2]; [3]
  observation of tissue structure: observed clearly
  staining of goblet cell: unstained
[2]; pH 9.0, 1 mg/mL
  difference in fluorescent luminance between the stained site and liquid pool containing free F—Na: little difference
